Test results taken from article PMC6199744, “Development of Chemical Proteomics for the Folateome and Analysis of the Kinetoplastid Folateome” (ACS Infectious Diseases, 2018).
The source gives many values for each of these; only a part stands here.

Tested on: L. major lysate proteins
Assay: Multitargeted bead mixture chemoproteomics, single concentration competition, proteome-wide
Type: binding
Details: for fold change: vehicle control = 1

`CCCCCCOc1cccc(Cc2cnc(N)nc2N)c1` [compound 2] showed a fold change (protein LMJF.28.2750 ACTIVATED PROTEIN KINASE C RECEPTOR (LACK)) of 1.09, a fold change (protein LMJF.29.0120 PROTEASOME REGULATORY NON-ATPASE SUBUNIT, PUTATIVE) of 0.96 and a fold change (protein LMJF.29.0760 LIPOPHOSPHOGLYCAN BIOSYNTHETIC PROTEIN, PUTATIVE,HEAT SHOCK PROTEIN 90, PUTATIVE) of 0.85. The fold change (protein LMJF.29.1240 HY[…], UNKNOWN FUNCTION) was 1.25, the fold change (protein LMJF.29.1270 100 kDa heat shock protein (Hsp100)) was 1.02 and the “fold change vs vehicle control” value (protein LMJF.30.0120 […] SYNTHASE) was 1.14. It also gave a fold change (protein LMJF.30.0750 4-METHYL-5(BETA-HYDROXYETHYL)-THIAZOLE MONOPHOSPHATE SYNTHESIS PROTEIN, PUTATIVE) of 0.94, a fold change (protein LMJF.30.1940 SUCCINYL-COA:3-KETOACID-COENZYME A TRANSFERASE- LIKE PROTEIN) of 1.09 and a fold change (protein LMJF.30.2330 HY[…], UNKNOWN FUNCTION) of 1.25. For the same molecule, the fold change (protein LMJF.30.2550 HEAT SHOCK 70-RELATED PROTEIN 1, MIT[…], PUTATIVE) was 1.15, the fold change (protein LMJF.30.3090 HY[…], CONSERVED) was 1.17 and the fold change (protein LMJF.30.3130 VALYL-TRNA SYNTHETASE, PUTATIVE) was 0.96. The fold change (protein LMJF.30.3430 HY[…], CONSERVED) was 1.03, the “fold change vs vehicle control” value (protein LMJF.30.3600 ATP SYNTHASE, EPSILON CHAIN, PUTATIVE) was 1.37 and the fold change (protein LMJF.30.3730 60S ACIDIC RIBOSOMAL PROTEIN P2, PUTATIVE) was 0.98. For the same molecule, the fold change (protein LMJF.32.0050 PROTEIN TRANSPORT PROTEIN SEC13, PUTATIVE) was 0.97, the fold change (protein LMJF.32.0750 RNA BINDING PROTEIN, PUTATIVE) was 1.08 and the “fold change vs vehicle control” value (protein LMJF.32.1060 DYNEIN, PUTATIVE) was 1.08. The fold change (protein LMJF.32.2800 HYPOTHETICAL PROTEIN, CONSERVED) was 0.89, the fold change (protein LMJF.32.3270 […] SUBUNIT, PUTATIVE) was 1.09 and the fold change (protein LMJF.32.3310 DIHYDROLIPOAMIDE DEHYDROGENASE, PUTATIVE) was 0.8. The fold change (protein LMJF.32.3640 HY[…], CONSERVED) was 1.11, the fold change (protein LMJF.33.0240 THIOL-DEPENDENT REDUCTASE 1) was 0.97 and the fold change (protein LMJF.33.0830 2,4-DIENOYL-COA REDUCTASE FADH1, PUTATIVE) was 1.08. For the same molecule, the fold change (protein LMJF.33.1590 HYPOTHETICAL PROTEIN, CONSERVED) was 1.23, the fold change (protein LMJF.33.1750 MACROPHAGE MIGRATION INHIBITORY FACTOR-LIKE PROTEIN) was 0.97 and the fold change (protein LMJF.33.2060 HYPOTHETICAL PROTEIN, CONSERVED) was 1. The fold change (protein LMJF.33.2270 HY[…], CONSERVED) was 1.21, the fold change (protein LMJF.33.2340 SUCCINYL-COA:3-KETOACID-COENZYME A TRANSFERASE, MIT[…], PUTATIVE) was 1.13 and the fold change (protein LMJF.33.2540 CARBOXYPEPTIDASE, PUTATIVE,METALLO-PEPTIDASE, CLAN MA(E), FAMILY M32) was 1.08. For the same molecule, the fold change (protein LMJF.34.0140 MALATE DEHYDROGENASE) was 1.1, the fold change (protein LMJF.34.0840 T[…] 1-BETA, PUTATIVE) was 1.15 and the fold change (protein LMJF.34.0930 HYPOTHETICAL PROTEIN, CONSERVED) was 1.1. The fold change (protein LMJF.34.2340 ASPARAGINYL-TRNA SYNTHETASE, PUTATIVE) was 0.92, the “fold change vs vehicle control” value (protein LMJF.34.2580 HYPOTHETICAL PROTEIN, CONSERVED) was 1.3 and the fold change (protein LMJF.34.3250 PUTATIVE PYRUVATE/INDOLE-PYRUVATE CARBOXYLASE, PUTATIVE) was 1.2. For the same molecule, the fold change (protein LMJF.35.0070 PROHIBITIN, PUTATIVE) was 1.05, the fold change (protein LMJF.35.0240 60S RIBOSOMAL PROTEIN L30) was 1.04 and the fold change (protein LMJF.35.0360 ENOYL-COA HYDRATASE/ISOMERASE FAMILY PROTEIN, CONSERVED) was 1.19. The fold change (protein LMJF.35.0820 ASPARTATE AMINOTRANSFERASE, PUTATIVE) was 1.07, the fold change (protein LMJF.35.1220 SHORT CHAIN DEHYDROGENASE, PUTATIVE) was 1.32 and the fold change (protein LMJF.35.1230 SHORT CHAIN DEHYDROGENASE, PUTATIVE) was 1.19. For the same molecule, the fold change (protein LMJF.35.3080 GLYCEROL KINASE, GLYCOSOMAL, PUTATIVE) was 1.09, the fold change (protein LMJF.35.3230 C[…] LYASE, PUTATIVE) was 1.21 and the fold change (protein LMJF.35.4420 MIT[…] TRANSPORTER, PUTATIVE) was 1.17. For the same molecule, the fold change (protein LMJF.36.0070 STRESS-INDUCIBLE PROTEIN STI1 HOMOLOG) was 1.13, the fold change (protein LMJF.36.0210 SET DOMAIN PROTEIN, PUTATIVE) was 0.94 and the fold change (protein LMJF.36.0320 […] 2 SUBUNIT, PUTATIVE) was 1.07. For the same molecule, the fold change (protein LMJF.36.0930 40S RIBOSOMAL PROTEIN S18, PUTATIVE) was 1.27, the fold change (protein LMJF.36.1260 FRUCTOSE-1,6-BI[…]) was 1.2 and the fold change (protein LMJF.36.1430 T[…] 1-BETA, PUTATIVE) was 1.42. For the same molecule, the fold change (protein LMJF.36.1600 PROTEASOME ALPHA 1 SUBUNIT, PUTATIVE) was 1, the fold change (protein LMJF.36.1650 […] 5 SUBUNIT, PUTATIVE) was 1.06 and the fold change (protein LMJF.36.2030 CHAPERONIN HSP60, MIT[…]) was 1.18. It also gave a fold change (protein LMJF.36.2160 HYPOTHETICAL PROTEIN, CONSERVED) of 1, a fold change (protein LMJF.36.2660 DIHYDROLIPOAMIDE ACETYLTRANSFERASE PRECURSOR, PUTATIVE) of 0.85 and a fold change (protein LMJF.36.2750 ACETYLTRANSFERASE-LIKE PROTEIN) of 1.08. The fold change (protein LMJF.36.2950 SUCCINYL-COA LIGASE GDP-FORMING] BETA-CHAIN, PUTATIVE) was 1.13, the fold change (protein LMJF.36.3210 14-3-3 PROTEIN-LIKE PROTEIN) was 1.22 and the fold change (protein LMJF.36.3410 SHORT CHAIN DEHYDROGENASE-LIKE PROTEIN) was 1.03. For the same molecule, the fold change (protein LMJF.36.3530 POLYUBIQUITIN, PUTATIVE) was 1.27, the fold change (protein LMJF.36.4420 60S RIBOSOMAL PROTEIN L22, PUTATIVE) was 1.15 and the fold change (protein LMJF.36.4460 HY[…], CONSERVED) was 1.13. The fold change (protein LMJF.36.6540 […] ENDO-1-LIKE PROTEIN) was 1.11.
